These results are taken from article PMC10602587.

In experiment [1] the target is DCLK1.1 351-729 (full C-tail) (human) (UniProt O15075). The experiment is described as follows: SEC; analytical SEC on Superdex 200 Increase 10/300 GL, 1 mg of each DCLK1 protein (legends: 1.1 mg), compared with molecular weight standards (bovine serum albumin, carbonic anhydrase, alcohol dehydrogenase); both purified. (Size exclusion chromatography separates by hydrodynamic size, large species first.)

In experiment [2] the target is DCLK1.2 351-740 (full C-tail) (human) (UniProt O15075). The experiment is described as above.

No constants are given. Whether binding was seen depends on the method and setting.

B1: DCLK1.1 351-729 (full C-tail) (domain or fragment, UniProt O15075-2 351-729)
chain: GSSTSLASTKVCSSMDENDGPGEEVSEEGFQIPATITERYKVGRTIGDGNFAVVKECVERSTAREYALKIIKKSKCRGKEHMIQNEVSILRRVKHPNIVLLIEEMDVPTELYLVMELVKGGDLFDAITSTNKYTERDASGMLYNLASAIKYLHSLNIVHRDIKPENLLVYEHQDGSKSLKLGDFGLATIVDGPLYTVCGTPTYVAPEIIAETGYGLKVDIWAAGVITYILLCGFPPFRGSGDDQEVLFDQILMGQVDFPSPYWDNVSDSAKELITMMLLVDVDQRFSAVQVLEHPWVNDDGLPENEHQLSVAGKIKKHFNTGPKPNSTAAGVSVIALDHGFTIKRSGSLDYYQQPGMYWIRPPLLIRRGRFSDEDATRM
Consider B1, for which the binding entry in experiment [1] is “no binding (tested: 1 mg loaded (legend: 1.1 mg))”.

B2: DCLK1.2 351-740 (full C-tail) (domain or fragment, UniProt O15075-1 351-740)
chain: GSSTSLASTKVCSSMDENDGPGEEVSEEGFQIPATITERYKVGRTIGDGNFAVVKECVERSTAREYALKIIKKSKCRGKEHMIQNEVSILRRVKHPNIVLLIEEMDVPTELYLVMELVKGGDLFDAITSTNKYTERDASGMLYNLASAIKYLHSLNIVHRDIKPENLLVYEHQDGSKSLKLGDFGLATIVDGPLYTVCGTPTYVAPEIIAETGYGLKVDIWAAGVITYILLCGFPPFRGSGDDQEVLFDQILMGQVDFPSPYWDNVSDSAKELITMMLLVDVDQRFSAVQVLEHPWVNDDGLPENEHQLSVAGKIKKHFNTGPKPNSTAAGVSVIATTALDKERQVFRRRRNQDVRSRYKAQPAPPELNSESEDYSPSSSETVRSPNSPF
Take B2: in experiment [2], the binding entry was “no binding (tested: 1 mg loaded (legend: 1.1 mg))”.
